Reference: the supplement of paper PMC5949888
Most values lie at the floor of the assay. Slopes are relative: functional sequences can read slightly below zero.

system: Saccharomyces cerevisiae PS128 hsf1 delta, HSF1(1-493) fusion; test: growth estimate (transactivation domain function in HSF1 fusion, heat-shock survival) (a.u. (slope of normalised read count over time)); higher = stronger growth at 37°C, i.e. more transactivation activity; settings: library: random library

| Substance | growth estimate |
| --- | --- |
| SSGVSKVRLYRISLNVRLNG | < -0.25 |
| WAPDPEAHRIYPIMRK | < -0.25 |
| RSDLGPEHPGG | < -0.25 |
| RVIEFGPSRR | < -0.25 |
| LPNMGRRSVGTNRTSVTRLW | < -0.25 |
| IRFGSYPRKRYWWCPDIMVG | -0.245 |
| CLIPWGRFLPYPRLKQGDFM | < -0.25 |
| QPQALIEWCQRRIAMRFGFG | < -0.25 |
| LRQPLRCFSCLSAIERRVSG | < -0.25 |
| GFRSAVKSQSSLGEITRFGD | < -0.25 |
| PGGNHRRDAVPSCSRTAPWI | < -0.25 |
| AKAVRVDGCNALEFLVNPPL | < -0.25 |
| VRQRLYSEIATYEHVQKETL | < -0.25 |
| VQAHNQNG | < -0.25 |
| FTDPEKSHSRKFQRSESRVH | < -0.25 |
| AEFASHSGKRLWASAARTTA | < -0.25 |
| NGVSIQAYAGRGRTSVTVSQ | < -0.25 |
| GSIPRVGEL | < -0.25 |
| LPGRLFHWLSGPT | < -0.25 |
| CLFMWAVVTVL | -0.246 |
| KAIGAREGSGVKSRIETNLP | < -0.25 |
| PREDSVMVITSE | < -0.25 |
| TRTKSMEKRIEIVGAAYLMP | -0.225 |
| RVNIYLCDRLWEFTLGMLLA | < -0.25 |
| LGSHMRPKGSANPG | < -0.25 |
| LARPSRTGMTSQWKSIKTQC | < -0.25 |

| Substance | growth estimate |
| --- | --- |
| ECDNILKIW | < -0.25 |
| RHT | < -0.25 |
| LCQGMGKPGTA | < -0.25 |
| NGLRAVSVLDILTGASPRLP | < -0.25 |
| NGHHW | < -0.25 |
| GDWTLPVLFVLTATRQRKVG | < -0.25 |
| GFARFPANPPEGPNEKVRSL | < -0.25 |
| CKLSFNQNGFMGRSSSMYWQ | < -0.25 |
| KGGRPLIPPTVR | < -0.25 |
| PVLRSSMLTIKRPHMWWRPG | < -0.25 |
| HDLVNLRAHIETESHLGYII | < -0.25 |
| STYSVP | < -0.25 |
| TRNGGP | < -0.25 |
| QVLDPRLVG | < -0.25 |
| CIGFA | < -0.25 |
| GRHVDIGVGGPPRRFSR | < -0.25 |
| SISSYSPETILYLLESLITG | < -0.25 |
| FRASGRLRASTLARGAVHLG | < -0.25 |
| YEPARRDGNVGVWIT | < -0.25 |
| LALTLGLEVKVALGTYGV | -0.25 |
| RLWATGNQE | -0.246 |
| VVSRYSDAGLSDAWSVCLSP | < -0.25 |
| VIRRGLCPFFSASGTIRGT | < -0.25 |
| FLIR | < -0.25 |
| YWMRRRTGTRTLGVHRGQER | < -0.25 |
| RRCSVLTTRIPYYVKRSPEV | < -0.25 |

A few values from the results shown:
TRNGGP – growth estimate: < -0.25
SISSYSPETILYLLESLITG – growth estimate: < -0.25
ECDNILKIW – growth estimate: < -0.25
LALTLGLEVKVALGTYGV – growth estimate: -0.25

Remaining list, next part

| Substance | growth estimate |
| --- | --- |
| KPAGGILVEEFGESLHAAGP | < -0.25 |
| QLIAGAVFSRRPRQGR | < -0.25 |
| PTFTLESS | < -0.25 |
| SQLTSLGLPFLRRSTSR | < -0.25 |
| KLTSYTDTSSIDPPGTWRKY | < -0.25 |
| VSPVPLRINCRVRSNHPRWE | < -0.25 |
| AGFVFPIVDLIHGRPHALAR | < -0.25 |
| VIPRELLMGFWRTDHCINRL | < -0.25 |
| SVVSDFNSHHSLINATAV | < -0.25 |
| RLLE | < -0.25 |
| TLACKS | < -0.25 |
| QFNVM | < -0.25 |
| HDTSWKVDQGKRAADHTPSQ | < -0.25 |
| VYPTCLH | < -0.25 |
| CKITSLWAAG | -0.196 |
| YKLFTHVRRARS | < -0.25 |
| LSPCAQSWACYLHGTVCLPG | -0.246 |
| MLGRSKLSIHWANCGTCPTS | < -0.25 |
| HPSYYVCRIHAHVNPGPRKS | < -0.25 |
| ESITSNWRILVLSHRSLSSP | < -0.25 |
| SFWSKVRVLKCRAYSRALGS | < -0.25 |
| VGKPSTLLVP | < -0.25 |
| PQSYTTFGRVLSGPLNVTCA | < -0.25 |
| GWATRHGGTESLVRT | < -0.25 |
| GDEVFY | < -0.25 |
| NVMGEQ | < -0.25 |

Rewritten with each value named: part of the list above.
KPAGGILVEEFGESLHAAGP
  growth estimate: < -0.25
SVVSDFNSHHSLINATAV
  growth estimate: < -0.25
VYPTCLH
  growth estimate: < -0.25
ESITSNWRILVLSHRSLSSP
  growth estimate: < -0.25

Going on with the list.

| Substance | growth estimate |
| --- | --- |
| EVLFWRDGG | < -0.25 |
| KGLCFSRQNYQAAQKRGVVP | < -0.25 |
| RIRIPSSLIHNLLVCS | < -0.25 |
| SCCRGLSGFC | < -0.25 |
| QLCV | < -0.25 |
| DERGTLSDPPVFCFGHQRPK | < -0.25 |
| AEGKAQAKLGHVPDPVES | < -0.25 |
| WFSPSPSPSIGGR | < -0.25 |
| LGLLARRAR | < -0.25 |
| VSSN | < -0.25 |
| TTGSQGSTRCRVCGLPYGRS | < -0.25 |
| APLVLGAWFACRDGTSQLGY | < -0.25 |
| PMAYRG | < -0.25 |
| PQTVLSLSLESRFCKNRHHP | < -0.25 |
| KNGRHW | < -0.25 |
| SAHLGSLPTLARSASLLAVR | < -0.25 |
| IGIFTHLKLCVWFIDGIVGE | < -0.25 |
| SSTPVRRGLRTEQFAPA | < -0.25 |
| GGFYIHNLSTHSVPCRCGDE | < -0.25 |
| GVALQAWSPNRVTAFIWTSR | < -0.25 |
| YTR | < -0.25 |
| YSEC | < -0.25 |
| FRLS | < -0.25 |
| GTPRGHDVRMS | < -0.25 |
| IIREGSTKRLLNGDLNFDPG | < -0.25 |
| TLAKERQ | < -0.25 |

| Substance | growth estimate |
| --- | --- |
| VRDALRGLAGTAGSDECASQ | < -0.25 |
| VYRSSHPTSSDRVEHCTSTL | < -0.25 |
| YPAQPRSRR | < -0.25 |
| LPFHATGRDSD | < -0.25 |
| RNDVED | < -0.25 |
| WDIRMVLESCSLGR | < -0.25 |
| GEGLGSITDAAKVCTLGRTR | < -0.25 |
| VSSEIEF | < -0.25 |
| LFLQACLVRLTPTKASVLRP | < -0.25 |
| EGDVVSKLSSPNTKLFFHAV | < -0.25 |
| ASMYVKAKYPPGSSIVALFP | < -0.25 |
| VAGVFGSSA | < -0.25 |
| WRR | -0.246 |
| WTGCLRERLNTPNGISVNK | < -0.25 |
| DFIGVVPGGSISTHCYPPIL | < -0.25 |
| TSEANSGV | < -0.25 |
| LLNVPLETCCRRPRYPFCEA | < -0.25 |
| GLTV | < -0.25 |
| WAATVCNNAVLLLPISY | < -0.25 |
| IQN | < -0.25 |
| ATAR | < -0.25 |
| VRTHTCVRYGTVGSMLELVW | < -0.25 |
| GQVAKECRYSGRSGFNVYEG | < -0.25 |
| DPLGAMIRRLVAIIVNTGRC | < -0.25 |
| FCI | < -0.25 |
| GKIRIGLMCRTLELL | < -0.25 |

3 records drawn at random from the list so far:

| Substance | growth estimate |
| --- | --- |
| RNDVED | < -0.25 |
| WTGCLRERLNTPNGISVNK | < -0.25 |
| ATAR | < -0.25 |

The listing continues:

| Substance | growth estimate |
| --- | --- |
| RVSTFIGVMATYGVNRTLRA | < -0.25 |
| AVRRY | < -0.25 |
| RQAG | < -0.25 |
| ERYGALGRYAIGVDAGCGMN | < -0.25 |
| NFYG | < -0.25 |
| ESHAPVIAVMAQLPQSSEPT | -0.077 |
| FEPDLWICPS | -0.194 |
| LTSFACLGQKSKSNRRTKHA | < -0.25 |
| LHKGSVGAGLWRAGRT | < -0.25 |
| SVGLPYERAS | < -0.25 |
| KPPLGI | < -0.25 |
| ALIRIKVMSYDR | < -0.25 |
| SQFLS | < -0.25 |
| QQGKRLARLAT | < -0.25 |
| LGLTVNFDPVHEDAGCA | < -0.25 |
| PEALWV | < -0.25 |
| VSY | < -0.25 |
| CLKMT | < -0.25 |
| CSMGAGSASRGSHVGKYHMT | < -0.25 |
| RRFGFAAHQPEICVGR | < -0.25 |
| LHTPMGGTSYIQGYMDEAGS | < -0.25 |
| PVG | < -0.25 |
| HLMSSEFVKLEMMFCAERVE | < -0.25 |
| SAFRPRFDRPCPRGGP | < -0.25 |
| VGEVKGVCASHKRVVDNFAL | < -0.25 |
| MRTMLLEDLPSVLIHIARPS | < -0.25 |

| Substance | growth estimate |
| --- | --- |
| ILLGPVSSSNQLGSGRAARQ | < -0.25 |
| VTRPHTLLSKNQMS | < -0.25 |
| RLLLA | < -0.25 |
| FFDVASETGS | < -0.25 |
| FDPGCCSNRGARGHRVHEEG | < -0.25 |
| FGPPS | < -0.25 |
| RLHEGQTGSQIVWRLLFWSI | < -0.25 |
| RGIMGFKVGGMQAYGITFGS | < -0.25 |
| LVPTPQRDVSPWKAR | -0.246 |
| KGEPLSNRS | < -0.25 |
| AKTEEAFGQENGTARVQRSV | < -0.25 |
| APPSQ | < -0.25 |
| CPFLTPVRFIGSPSVYTLWA | < -0.25 |
| VPSTVQPV | < -0.25 |
| IQVSWDVYRGAEEV | < -0.25 |
| VLLTA | < -0.25 |
| CEPQVGGCQVVGPLL | < -0.25 |
| AMRLTTHV | < -0.25 |
| DEDYSGCIGGRIIAIVRIRH | < -0.25 |
| LVFAINSRSIPV | < -0.25 |
| RTYDGGEILIVGVLKVHTRR | < -0.25 |
| VTEVTVKRVS | < -0.25 |
| NGEIYHQTLSSTVLKPPGTP | < -0.25 |
| PLARP | < -0.25 |
| LCYR | -0.156 |
| TTK | -0.243 |

| Substance | growth estimate |
| --- | --- |
| AGGGPYGGQLAVLAARLGEG | < -0.25 |
| VIHLAIPSRKGTEVG | < -0.25 |
| NRMACQPEPTASRWEVMHYG | < -0.25 |
| WWGISKFFGRESMDGRNRRW | < -0.25 |
| SQGSRWWNIRIKGDGD | < -0.25 |
| DLAGSGVDRLAGINLYPVVY | < -0.25 |
| LVQLIESGVSCAPVRKK | < -0.25 |
| HKGGRAVSGSRRSHSG | < -0.25 |
| QYWLRNCIPTPSYVAVSEGR | < -0.25 |
| TYPANACGFILLNINEPVLR | < -0.25 |
| NGPIRSSLSVNWSGPSTVTM | < -0.25 |
| RPPGRVCSEGEGC | < -0.25 |
| PMLGYTRLRC | < -0.25 |
| IWVSLPFSAPFLVQSGGGRG | < -0.25 |
| GVSDAGSLIDTCKGRFTAKS | < -0.25 |
| LVGTSRASLACLPTGLTDNV | < -0.25 |
| HVPVRPERSKNGWTRTRITG | < -0.25 |
| GLDEC | < -0.25 |
| IHCAYL | < -0.25 |
